Assay results published in article PMC4673198.

By UniProt entry, the sequences of proteins in these tests, tags left out.
UniProt O43474: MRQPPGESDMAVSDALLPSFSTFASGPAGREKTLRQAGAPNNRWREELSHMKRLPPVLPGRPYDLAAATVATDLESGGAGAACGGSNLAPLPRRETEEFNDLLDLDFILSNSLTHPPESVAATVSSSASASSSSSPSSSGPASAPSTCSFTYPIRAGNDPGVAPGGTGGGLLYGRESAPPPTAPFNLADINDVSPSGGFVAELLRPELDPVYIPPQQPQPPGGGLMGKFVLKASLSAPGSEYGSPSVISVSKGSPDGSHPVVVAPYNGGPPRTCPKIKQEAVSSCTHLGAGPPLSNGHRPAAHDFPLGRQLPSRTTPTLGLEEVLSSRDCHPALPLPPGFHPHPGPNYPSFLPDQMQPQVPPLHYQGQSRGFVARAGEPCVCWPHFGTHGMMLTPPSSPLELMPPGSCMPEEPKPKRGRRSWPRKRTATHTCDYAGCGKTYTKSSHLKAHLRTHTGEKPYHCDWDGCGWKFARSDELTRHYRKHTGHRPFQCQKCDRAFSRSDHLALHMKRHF

Molecular target: Flag-KLF4 (UniProt O43474)
Assay: affinity purification with mass spectrometry; HepG2 cells infected with adenovirus expressing Flag-KLF4 or empty vector for 36 hr; NETN lysis buffer; anti-FLAG M2 affinity resin overnight at 4°C; eluted with 3 x Flag-peptide; SDS-PAGE, MS/MS

Question: Which binding does the source give for “SKP1, endogenous in HepG2 (from UniProt P63208 1-163)” here?
Answer: binds

These are yes or no findings as the source states them, for the method shown. In cells and extracts the contact can be indirect. Here binding means that the protein was enriched with, or labelled near, the bait; the list need not be complete.
